Laboratory results reported in the supplement of paper PMC11732987, “Enantioselective OTUD7B fragment discovery through chemoproteomics screening and high-throughput optimisation” (Communications Chemistry, 2025).
This is one part of the list. The data scatter; read single values as rough.

Protein sequences, listed by entry. Tags and fused reporters are not part of them. Lines headed by an entry give the natural chain unless they say otherwise; changes in a name come on top.
UniProt Q6ZW76: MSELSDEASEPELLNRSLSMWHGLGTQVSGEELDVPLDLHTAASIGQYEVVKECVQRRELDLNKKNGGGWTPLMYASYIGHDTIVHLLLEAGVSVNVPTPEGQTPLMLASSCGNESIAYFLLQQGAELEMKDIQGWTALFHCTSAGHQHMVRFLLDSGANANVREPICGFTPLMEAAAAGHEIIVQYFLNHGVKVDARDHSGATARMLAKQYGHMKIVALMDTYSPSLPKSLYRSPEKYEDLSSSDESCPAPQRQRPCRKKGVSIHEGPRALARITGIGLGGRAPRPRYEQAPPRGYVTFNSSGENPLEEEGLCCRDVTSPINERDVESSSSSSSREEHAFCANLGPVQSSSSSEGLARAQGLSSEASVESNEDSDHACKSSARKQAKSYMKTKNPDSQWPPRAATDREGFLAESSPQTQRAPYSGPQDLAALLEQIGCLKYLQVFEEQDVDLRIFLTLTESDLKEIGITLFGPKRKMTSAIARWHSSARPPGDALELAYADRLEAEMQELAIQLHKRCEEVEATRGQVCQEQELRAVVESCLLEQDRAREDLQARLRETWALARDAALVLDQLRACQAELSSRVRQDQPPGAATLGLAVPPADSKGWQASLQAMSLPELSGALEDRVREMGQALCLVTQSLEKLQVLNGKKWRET
UniProt P63010: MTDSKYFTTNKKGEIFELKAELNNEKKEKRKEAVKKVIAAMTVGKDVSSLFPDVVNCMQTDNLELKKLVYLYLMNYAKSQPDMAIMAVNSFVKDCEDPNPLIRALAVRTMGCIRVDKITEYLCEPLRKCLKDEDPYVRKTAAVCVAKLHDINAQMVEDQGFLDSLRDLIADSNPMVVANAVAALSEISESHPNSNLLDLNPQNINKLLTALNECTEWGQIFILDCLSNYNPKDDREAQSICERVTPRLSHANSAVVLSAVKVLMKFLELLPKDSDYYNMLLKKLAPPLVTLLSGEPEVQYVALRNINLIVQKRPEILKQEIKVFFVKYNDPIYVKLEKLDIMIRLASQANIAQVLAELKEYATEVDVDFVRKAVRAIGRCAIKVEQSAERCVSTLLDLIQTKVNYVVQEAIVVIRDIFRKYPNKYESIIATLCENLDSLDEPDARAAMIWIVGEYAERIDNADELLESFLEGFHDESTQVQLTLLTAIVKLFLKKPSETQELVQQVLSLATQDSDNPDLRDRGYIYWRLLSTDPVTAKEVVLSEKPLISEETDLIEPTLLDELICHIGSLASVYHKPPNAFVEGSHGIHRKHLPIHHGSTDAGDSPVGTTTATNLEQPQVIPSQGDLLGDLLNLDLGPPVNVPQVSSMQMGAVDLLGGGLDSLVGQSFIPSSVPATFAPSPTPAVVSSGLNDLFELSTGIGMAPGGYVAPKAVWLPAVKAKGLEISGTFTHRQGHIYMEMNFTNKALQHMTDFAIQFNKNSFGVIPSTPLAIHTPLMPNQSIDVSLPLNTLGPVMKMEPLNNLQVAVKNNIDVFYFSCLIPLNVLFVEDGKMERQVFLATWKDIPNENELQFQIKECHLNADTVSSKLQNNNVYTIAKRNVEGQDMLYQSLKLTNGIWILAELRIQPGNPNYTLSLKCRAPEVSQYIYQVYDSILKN
UniProt P84085: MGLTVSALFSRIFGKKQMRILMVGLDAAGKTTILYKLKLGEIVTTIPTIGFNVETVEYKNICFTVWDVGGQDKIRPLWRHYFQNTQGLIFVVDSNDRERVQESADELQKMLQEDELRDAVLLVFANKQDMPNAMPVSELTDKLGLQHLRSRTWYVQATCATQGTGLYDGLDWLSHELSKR
UniProt Q6P4F7: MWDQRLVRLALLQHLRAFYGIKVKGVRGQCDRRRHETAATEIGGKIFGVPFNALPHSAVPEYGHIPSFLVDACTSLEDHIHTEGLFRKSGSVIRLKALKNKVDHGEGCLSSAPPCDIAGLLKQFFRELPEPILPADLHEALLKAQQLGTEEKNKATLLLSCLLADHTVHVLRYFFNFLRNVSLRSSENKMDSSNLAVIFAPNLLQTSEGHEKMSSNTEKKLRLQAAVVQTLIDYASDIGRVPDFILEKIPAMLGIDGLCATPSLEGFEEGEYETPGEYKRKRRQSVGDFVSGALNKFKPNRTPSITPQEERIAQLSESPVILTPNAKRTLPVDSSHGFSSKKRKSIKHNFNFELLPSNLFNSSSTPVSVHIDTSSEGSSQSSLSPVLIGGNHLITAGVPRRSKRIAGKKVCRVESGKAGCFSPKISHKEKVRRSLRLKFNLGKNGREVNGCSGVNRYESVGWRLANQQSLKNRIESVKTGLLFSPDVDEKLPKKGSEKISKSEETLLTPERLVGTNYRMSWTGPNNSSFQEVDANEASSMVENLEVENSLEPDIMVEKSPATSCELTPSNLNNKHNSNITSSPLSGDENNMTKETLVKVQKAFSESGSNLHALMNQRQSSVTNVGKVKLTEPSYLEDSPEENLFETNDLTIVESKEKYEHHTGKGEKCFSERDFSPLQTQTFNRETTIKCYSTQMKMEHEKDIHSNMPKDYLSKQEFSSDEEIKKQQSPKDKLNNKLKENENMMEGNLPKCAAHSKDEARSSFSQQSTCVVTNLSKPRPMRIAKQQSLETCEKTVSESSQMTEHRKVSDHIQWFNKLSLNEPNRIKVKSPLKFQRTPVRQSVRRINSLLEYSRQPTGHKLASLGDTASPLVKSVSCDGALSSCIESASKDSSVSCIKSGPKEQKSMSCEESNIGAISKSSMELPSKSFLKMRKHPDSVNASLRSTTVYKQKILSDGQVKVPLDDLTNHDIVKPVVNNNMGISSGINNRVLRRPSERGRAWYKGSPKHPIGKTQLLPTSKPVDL
UniProt O94973: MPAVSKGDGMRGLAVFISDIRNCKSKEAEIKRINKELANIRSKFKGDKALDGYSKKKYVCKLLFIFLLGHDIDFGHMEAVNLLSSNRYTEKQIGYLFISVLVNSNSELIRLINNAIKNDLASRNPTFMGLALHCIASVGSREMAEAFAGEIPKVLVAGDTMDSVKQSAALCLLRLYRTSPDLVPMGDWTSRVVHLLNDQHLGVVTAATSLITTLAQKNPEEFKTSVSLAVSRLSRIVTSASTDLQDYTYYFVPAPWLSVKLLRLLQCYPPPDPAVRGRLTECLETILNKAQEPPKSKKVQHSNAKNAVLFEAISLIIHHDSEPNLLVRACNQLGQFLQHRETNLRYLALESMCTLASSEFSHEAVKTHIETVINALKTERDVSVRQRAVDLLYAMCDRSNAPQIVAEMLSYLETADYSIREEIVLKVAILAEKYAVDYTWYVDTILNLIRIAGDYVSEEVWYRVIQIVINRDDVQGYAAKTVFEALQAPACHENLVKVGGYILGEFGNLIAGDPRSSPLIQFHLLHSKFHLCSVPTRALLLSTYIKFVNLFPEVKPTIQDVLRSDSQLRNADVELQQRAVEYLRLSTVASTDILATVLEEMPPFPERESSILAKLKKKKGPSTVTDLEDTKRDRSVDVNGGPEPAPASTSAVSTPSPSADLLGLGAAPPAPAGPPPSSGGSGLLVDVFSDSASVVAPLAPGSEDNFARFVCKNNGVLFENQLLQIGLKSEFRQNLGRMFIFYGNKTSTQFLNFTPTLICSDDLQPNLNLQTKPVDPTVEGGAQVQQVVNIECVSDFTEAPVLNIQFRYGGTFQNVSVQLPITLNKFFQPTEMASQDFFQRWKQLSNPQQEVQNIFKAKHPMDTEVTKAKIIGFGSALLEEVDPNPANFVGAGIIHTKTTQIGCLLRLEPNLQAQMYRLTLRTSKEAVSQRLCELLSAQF
UniProt Q8IVW6: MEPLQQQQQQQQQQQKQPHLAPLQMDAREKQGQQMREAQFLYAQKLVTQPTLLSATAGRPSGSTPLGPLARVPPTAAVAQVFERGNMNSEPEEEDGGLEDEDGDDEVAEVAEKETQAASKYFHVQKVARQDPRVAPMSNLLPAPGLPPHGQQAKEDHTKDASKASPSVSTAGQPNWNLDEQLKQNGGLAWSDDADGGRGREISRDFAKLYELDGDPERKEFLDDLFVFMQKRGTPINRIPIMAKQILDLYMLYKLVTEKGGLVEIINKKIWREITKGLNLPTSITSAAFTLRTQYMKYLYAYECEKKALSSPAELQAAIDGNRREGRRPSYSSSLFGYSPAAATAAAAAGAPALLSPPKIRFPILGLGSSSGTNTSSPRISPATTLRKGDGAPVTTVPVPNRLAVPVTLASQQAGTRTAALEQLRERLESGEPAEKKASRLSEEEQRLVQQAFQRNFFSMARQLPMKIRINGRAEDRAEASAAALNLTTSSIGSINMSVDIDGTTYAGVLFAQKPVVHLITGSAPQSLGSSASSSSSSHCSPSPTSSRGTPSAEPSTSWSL
UniProt Q8N264: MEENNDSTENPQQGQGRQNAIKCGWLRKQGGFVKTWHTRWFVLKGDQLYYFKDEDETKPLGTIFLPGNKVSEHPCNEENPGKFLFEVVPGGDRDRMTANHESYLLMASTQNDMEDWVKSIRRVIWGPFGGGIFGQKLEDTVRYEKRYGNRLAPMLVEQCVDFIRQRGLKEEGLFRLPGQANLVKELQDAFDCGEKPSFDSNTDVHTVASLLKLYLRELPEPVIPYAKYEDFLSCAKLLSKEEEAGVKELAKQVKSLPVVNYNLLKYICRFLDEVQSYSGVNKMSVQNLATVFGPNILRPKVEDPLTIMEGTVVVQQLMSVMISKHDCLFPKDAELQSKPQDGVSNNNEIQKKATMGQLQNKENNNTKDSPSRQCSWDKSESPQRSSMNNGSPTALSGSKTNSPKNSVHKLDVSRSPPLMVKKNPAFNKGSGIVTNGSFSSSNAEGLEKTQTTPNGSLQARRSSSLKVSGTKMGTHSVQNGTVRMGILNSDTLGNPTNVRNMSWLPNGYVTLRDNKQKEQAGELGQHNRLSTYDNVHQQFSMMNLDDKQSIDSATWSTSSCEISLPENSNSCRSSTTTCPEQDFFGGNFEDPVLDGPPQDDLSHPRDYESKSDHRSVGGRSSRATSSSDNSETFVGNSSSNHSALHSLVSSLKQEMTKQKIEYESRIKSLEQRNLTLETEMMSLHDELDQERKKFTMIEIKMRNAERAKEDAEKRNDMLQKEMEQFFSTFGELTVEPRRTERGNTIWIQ
UniProt Q9ULJ7: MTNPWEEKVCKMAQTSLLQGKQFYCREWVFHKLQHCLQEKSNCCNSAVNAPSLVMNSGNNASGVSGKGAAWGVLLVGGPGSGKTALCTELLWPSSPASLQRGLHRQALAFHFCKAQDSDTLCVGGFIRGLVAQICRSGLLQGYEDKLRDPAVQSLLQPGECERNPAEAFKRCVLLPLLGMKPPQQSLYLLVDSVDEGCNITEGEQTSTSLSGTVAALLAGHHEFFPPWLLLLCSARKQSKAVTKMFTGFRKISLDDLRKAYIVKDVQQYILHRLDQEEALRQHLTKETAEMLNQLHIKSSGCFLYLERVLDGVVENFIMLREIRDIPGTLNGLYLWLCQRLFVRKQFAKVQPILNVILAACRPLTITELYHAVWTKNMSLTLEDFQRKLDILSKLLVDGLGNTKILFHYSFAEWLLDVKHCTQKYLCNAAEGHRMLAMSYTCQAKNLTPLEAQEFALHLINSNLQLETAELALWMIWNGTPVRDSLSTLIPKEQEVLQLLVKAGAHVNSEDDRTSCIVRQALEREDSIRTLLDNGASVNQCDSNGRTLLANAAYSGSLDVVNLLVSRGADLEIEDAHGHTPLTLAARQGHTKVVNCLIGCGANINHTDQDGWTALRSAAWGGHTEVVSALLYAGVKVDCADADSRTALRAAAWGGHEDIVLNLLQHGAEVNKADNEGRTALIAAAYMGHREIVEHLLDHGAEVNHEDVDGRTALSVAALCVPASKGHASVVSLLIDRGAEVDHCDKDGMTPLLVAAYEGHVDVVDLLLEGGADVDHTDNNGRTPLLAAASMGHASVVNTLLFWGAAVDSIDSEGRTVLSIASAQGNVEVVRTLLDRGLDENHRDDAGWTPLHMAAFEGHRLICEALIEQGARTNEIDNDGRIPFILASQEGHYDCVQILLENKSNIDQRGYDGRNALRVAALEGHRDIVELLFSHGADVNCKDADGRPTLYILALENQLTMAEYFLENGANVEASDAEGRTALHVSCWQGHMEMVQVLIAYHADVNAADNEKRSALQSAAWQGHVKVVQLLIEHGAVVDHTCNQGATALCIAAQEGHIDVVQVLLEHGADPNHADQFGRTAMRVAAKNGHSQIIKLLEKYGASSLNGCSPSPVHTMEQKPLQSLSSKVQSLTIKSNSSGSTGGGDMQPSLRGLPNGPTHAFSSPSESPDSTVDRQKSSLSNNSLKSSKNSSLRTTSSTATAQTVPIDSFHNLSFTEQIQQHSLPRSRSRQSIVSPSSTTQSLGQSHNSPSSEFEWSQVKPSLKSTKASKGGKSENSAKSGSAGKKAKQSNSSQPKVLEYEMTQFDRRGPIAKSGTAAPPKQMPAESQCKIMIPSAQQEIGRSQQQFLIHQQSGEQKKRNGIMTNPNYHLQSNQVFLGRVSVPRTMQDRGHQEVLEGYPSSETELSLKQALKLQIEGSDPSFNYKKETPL

Key:
[1] = compound: ClCC(=O)N[C@@H]1CCCc2ccccc12; assay: log2 mean competition ratio of IA-DTB cysteine labelling (DMSO/compound) (log2 ratio); higher = stronger cysteine engagement by compound; conditions: treatment time: 4 h, cell line lysate: HEK293T
Experimental: (§1)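 IA-DTB competitive cysteine chemoproteomics in HEK293T RIPA lysate. Lysates were treated with compound 29 or 30 at 50 or 200 µM for 4 h, then IA-DTB (500 µM, 1 h), trypsin-digested, NeutrAvidin-enriched and analysed by diaPASEF. Competition ratio = intensity DMSO / intensity compound (n=4 treated, n=64 DMSO); binding: mean log2 CR ≥ 1 and p ≤ 0.05 plus QC filters. Target is the cysteine site.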

[2] = compound: ClCC(=O)N[C@H]1CCCc2ccccc12; assay: as above; conditions: treatment time: 4 h, cell line lysate: HEK293T
Experimental: as §1

Target	log2 mean competition ratio ([1]; 50 µM)	log2 mean competition ratio ([1]; 200 µM)	log2 mean competition ratio ([2]; 50 µM)	log2 mean competition ratio ([2]; 200 µM)
AP1G1 C106	-0.156	0.0772	-0.601	-0.0142
ANKS3 C530 (UniProt Q6ZW76)	-0.125	-0.114	-0.391	-0.078
AP2B1 C380 (UniProt P63010)	0.106	0.191	-0.077	0.139
ARF5 C62 (UniProt P84085)	0.302	-0.276	0.344	-0.179
APRT C153 (UniProt P07741)	-0.582	-0.308	0.438	-0.242
ARHGAP11A C451 (UniProt Q6P4F7)	0.0293	0.265	0.375	0.243
AP2A1 C492 (UniProt O95782)	-0.0049	-0.0283	-0.203	-0.179
ASH2L C207 (UniProt Q9UBL3)	0.362	-0.0606	-0.364	-0.313
AP2A2 C267 (UniProt O94973)	-0.092	-0.309	-0.168	-0.189
ARID2 C1512 (UniProt Q68CP9)	-0.176	0.0831	-0.0173	0.438
ARL6IP1 C109 (UniProt Q15041)	0.603	0.101	0.0191	0.0659
ANLN C71 (UniProt Q9NQW6)	0.0363	0.0167	0.443	-0.0251
ARID3B C304 (UniProt Q8IVW6)	0.0775	-0.235	-0.0655	-0.26
ARHGAP24 C234 (UniProt Q8N264)	-0.0819	-0.0316	-0.163	-0.0362
ANKRD50 C1328 (UniProt Q9ULJ7)	-0.342	0.418	-0.0255	0.632

Quoted from the listing.
Entry for AP1G1 C106 under log2 mean competition ratio ([2]; 200 µM): -0.0142
Entry for ARL6IP1 C109 (UniProt Q15041) under log2 mean competition ratio ([1]; 50 µM): 0.603
